Source: patent publication US20180020669A1, “Methods for the Inhibition and Dispersal of Biofilms” (priority 2015, published 2018)
At least one structure is not confirmed: it was looked up by name or label, or the drawing left a doubt.

Test system: preformed S. aureus NCTC 8325 biofilms
Experiment: Preformed biofilm assay (crystal violet)
Assay type: cell-based, Staphylococcus aureus
Experimental: The effect of auranofin, alone and in combination with antibiotics, on preformed S. aureus biofilms was assessed. Briefly S. aureus NCTC 8325 was plated in 96-well plates as described in Example 2 and incubated 37° C. for 24 hours. Biofilms were then washed 3 times with TSB and 150 μL of fresh TSB and 3 μL of auranofin at the appropriate dilution in DMSO was added to the wells in duplicate. Plates were again sealed with AeraSeal™ and reincubated 37° C. for 24 hours. Biofilm was then detected as described in above.

`CO[C@H]1/C=C/O[C@@]2(C)Oc3c(C)c(O)c4c(O)c(c(/C=N/N5CCN(C)CC5)c(O)c4c3C2=O)NC(=O)/C(C)=C\C=C\[C@H](C)[C@H](O)[C@@H](C)[C@@H](O)[C@@H](C)[C@H](OC(C)=O)[C@@H]1C` [rifampicin] was tested, and the “effect on the biofilm, compound alone” value (5 μg/mL auranofin alone or 1.5 μg/mL rifampicin alone) was “only a partial effect”, the “effect on biofilm mass, antibiotic alone” value (0.9 or 3 μg/mL rifampicin, 25 or 75 μg/mL gentamicin) was “no effect on biofilm mass” and the “effect on existing S. aureus biofilms (crystal violet staining)” value (24 hours treatment, FIG. 5) was “did not treat preformed biofilm”.
